Laboratory results taken from patent publication US20240216509A1.
These are yes or no findings as the source states them, for the method shown. Some entries that bind do so weakly or less than the wild type.

Amino acid sequences for entries named in this document (tags omitted). A change or cut given only in a name is not applied to a line headed by its entry.
UniProt Q15116: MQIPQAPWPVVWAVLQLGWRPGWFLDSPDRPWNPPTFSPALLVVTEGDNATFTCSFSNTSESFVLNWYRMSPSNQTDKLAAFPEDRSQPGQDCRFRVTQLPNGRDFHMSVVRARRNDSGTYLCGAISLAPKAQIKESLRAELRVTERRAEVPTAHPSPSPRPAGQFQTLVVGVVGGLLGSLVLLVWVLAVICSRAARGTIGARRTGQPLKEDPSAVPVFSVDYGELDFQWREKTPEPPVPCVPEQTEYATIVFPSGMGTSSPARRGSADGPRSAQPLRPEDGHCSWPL
UniProt P01732: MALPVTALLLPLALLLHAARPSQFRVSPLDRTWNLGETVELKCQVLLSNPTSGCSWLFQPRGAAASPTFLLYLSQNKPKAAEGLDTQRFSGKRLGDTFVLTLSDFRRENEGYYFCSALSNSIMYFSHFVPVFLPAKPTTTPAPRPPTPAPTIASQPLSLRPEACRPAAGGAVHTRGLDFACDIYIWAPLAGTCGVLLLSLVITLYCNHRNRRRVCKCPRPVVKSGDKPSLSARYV

Molecular target: full length human PD-1 expressed on the surface of transfected Drosophila S2 cells or Raji cells (human) (UniProt Q15116)
Assay: co-culture of CAR NK-92 with PD-1-expressing S2 or Raji cells; recognition inferred from degranulation and killing

PD-L1 CAR (2nd generation CAR, PDL1-CD28-CD3ζ) expressed on NK-92 cells (from UniProt P01732 138-182; P10747 153-220; P20963 52-164)
binding: binds
